According to paper doi:10.1101/2025.08.07.669170:
Like-named read-outs stand apart in the source and are kept apart here. Results are given in words; binding and its absence hold for the method and conditions named. Binding seen in cells or lysates may run through a third protein. Some entries that bind do so weakly or less than the wild type.

Amino acid sequences for entries named in this document (tags omitted).
UniProt Q9UN81: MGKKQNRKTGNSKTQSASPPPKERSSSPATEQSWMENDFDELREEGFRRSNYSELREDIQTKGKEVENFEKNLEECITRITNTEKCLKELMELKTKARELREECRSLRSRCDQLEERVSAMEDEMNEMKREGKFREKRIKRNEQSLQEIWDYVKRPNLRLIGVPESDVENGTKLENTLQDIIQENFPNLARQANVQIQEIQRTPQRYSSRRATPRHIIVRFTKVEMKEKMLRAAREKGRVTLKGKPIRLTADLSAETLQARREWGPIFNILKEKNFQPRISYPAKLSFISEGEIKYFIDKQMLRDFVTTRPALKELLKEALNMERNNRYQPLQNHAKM
UniProt Q9NYF8: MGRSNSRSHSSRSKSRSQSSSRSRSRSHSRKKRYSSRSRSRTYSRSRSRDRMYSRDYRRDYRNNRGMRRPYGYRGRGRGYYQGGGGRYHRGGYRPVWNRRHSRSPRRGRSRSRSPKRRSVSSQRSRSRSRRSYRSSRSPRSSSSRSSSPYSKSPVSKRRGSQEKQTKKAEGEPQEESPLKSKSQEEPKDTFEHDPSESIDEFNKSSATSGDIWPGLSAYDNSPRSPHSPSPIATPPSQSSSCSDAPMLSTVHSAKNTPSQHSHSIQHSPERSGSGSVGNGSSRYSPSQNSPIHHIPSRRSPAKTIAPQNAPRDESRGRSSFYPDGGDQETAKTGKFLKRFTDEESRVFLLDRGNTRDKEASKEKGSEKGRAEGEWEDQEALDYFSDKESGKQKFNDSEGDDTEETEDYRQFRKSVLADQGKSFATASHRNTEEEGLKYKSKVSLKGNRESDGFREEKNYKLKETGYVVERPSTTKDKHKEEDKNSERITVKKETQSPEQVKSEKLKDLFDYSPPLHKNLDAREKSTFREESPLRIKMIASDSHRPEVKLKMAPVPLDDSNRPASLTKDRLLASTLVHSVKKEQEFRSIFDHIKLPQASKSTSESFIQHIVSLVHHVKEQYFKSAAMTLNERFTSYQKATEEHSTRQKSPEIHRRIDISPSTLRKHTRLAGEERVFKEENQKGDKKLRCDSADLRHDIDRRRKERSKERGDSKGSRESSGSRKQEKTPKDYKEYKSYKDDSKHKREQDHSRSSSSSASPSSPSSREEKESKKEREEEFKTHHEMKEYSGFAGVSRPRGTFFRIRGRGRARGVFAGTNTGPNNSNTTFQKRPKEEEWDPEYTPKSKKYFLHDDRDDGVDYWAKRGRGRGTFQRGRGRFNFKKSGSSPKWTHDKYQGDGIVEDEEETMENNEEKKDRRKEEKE
UniProt P20700: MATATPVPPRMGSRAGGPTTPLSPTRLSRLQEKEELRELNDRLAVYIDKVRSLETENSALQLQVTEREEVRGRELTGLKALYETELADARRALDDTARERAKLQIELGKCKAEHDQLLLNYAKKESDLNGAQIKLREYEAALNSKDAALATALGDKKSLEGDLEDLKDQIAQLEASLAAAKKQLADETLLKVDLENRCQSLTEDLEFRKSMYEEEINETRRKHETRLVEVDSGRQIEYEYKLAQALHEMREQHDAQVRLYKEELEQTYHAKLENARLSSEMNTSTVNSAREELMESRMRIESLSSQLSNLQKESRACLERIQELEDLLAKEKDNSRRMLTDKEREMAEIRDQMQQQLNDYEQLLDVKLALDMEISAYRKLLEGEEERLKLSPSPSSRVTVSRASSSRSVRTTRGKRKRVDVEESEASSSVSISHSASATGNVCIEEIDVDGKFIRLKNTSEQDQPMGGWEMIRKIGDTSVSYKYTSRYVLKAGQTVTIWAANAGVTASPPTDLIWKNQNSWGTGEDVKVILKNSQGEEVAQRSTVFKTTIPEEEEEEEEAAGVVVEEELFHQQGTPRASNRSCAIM

What was measured:
[1] = target: LINE-1 ORF1p (human (endogenous in PC3)) (UniProt Q9UN81); test: proximity ligation
[2] = target: LINE-1 ORF1p (human (endogenous in PC3)) (UniProt Q9UN81); test: proximity ligation; remark: listed apart in the source

BCLAF1 (from UniProt Q9NYF8 1-920)
binding [1]: binds

lamin B1 (from UniProt P20700 1-586)
binding [1]: binds | binding [2]: binds weakly
